Binding data for 3 molecules are collected here from publication PMC6039025.

Results are given in words; binding and its absence hold for the method and conditions named. Some binding calls cover weakened binding; strength is not graded here. Tags and fused reporters may be left off the sequences shown.

The test addresses T1, Smc4 (wild-type), 3xStrepTagII-tagged (S. cerevisiae) (UniProt Q12267).
T1 sequence: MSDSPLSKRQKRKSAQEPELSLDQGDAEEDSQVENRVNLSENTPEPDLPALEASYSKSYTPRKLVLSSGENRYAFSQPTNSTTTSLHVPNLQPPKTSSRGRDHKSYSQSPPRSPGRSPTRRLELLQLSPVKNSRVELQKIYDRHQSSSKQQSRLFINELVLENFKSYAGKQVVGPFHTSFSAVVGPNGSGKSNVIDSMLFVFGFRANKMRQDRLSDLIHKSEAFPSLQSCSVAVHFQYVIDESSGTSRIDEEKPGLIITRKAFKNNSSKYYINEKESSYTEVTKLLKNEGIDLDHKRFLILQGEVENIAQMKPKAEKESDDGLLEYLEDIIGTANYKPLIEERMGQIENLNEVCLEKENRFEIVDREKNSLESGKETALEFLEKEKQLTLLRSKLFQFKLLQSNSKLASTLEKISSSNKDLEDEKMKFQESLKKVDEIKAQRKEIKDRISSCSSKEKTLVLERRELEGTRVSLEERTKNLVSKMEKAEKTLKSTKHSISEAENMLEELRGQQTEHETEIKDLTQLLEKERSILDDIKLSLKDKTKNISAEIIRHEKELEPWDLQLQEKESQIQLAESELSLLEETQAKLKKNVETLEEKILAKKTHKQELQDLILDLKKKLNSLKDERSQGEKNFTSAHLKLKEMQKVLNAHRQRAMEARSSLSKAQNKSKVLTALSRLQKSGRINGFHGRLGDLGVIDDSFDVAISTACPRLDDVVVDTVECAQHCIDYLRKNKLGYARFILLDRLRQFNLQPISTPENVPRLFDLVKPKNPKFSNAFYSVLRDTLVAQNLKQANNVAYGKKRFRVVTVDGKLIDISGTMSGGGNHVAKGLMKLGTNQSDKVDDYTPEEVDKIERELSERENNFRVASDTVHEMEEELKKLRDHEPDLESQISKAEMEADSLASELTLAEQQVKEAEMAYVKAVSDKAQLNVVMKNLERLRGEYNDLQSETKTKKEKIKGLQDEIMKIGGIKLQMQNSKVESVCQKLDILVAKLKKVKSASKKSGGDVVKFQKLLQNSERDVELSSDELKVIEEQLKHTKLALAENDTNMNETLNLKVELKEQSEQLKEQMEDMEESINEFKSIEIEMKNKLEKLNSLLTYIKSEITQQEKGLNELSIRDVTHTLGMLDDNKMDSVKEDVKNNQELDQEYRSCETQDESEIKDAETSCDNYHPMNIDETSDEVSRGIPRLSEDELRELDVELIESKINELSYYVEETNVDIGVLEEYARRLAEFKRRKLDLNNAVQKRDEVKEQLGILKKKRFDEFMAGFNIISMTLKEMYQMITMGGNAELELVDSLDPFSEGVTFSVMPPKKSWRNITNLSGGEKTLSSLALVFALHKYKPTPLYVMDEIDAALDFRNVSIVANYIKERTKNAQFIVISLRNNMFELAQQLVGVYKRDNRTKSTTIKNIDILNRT
The test is described as follows: tandem affinity co-purification (Ni-NTA, Strep-Trap) + SEC; five condensin subunits co-overexpressed in yeast; extract in 500 mM NaCl, 10 mM Tris-HCl pH 8.0, 10% glycerol; Ni-NTA (His tags on Brn1 and Ycg1), then Strep-Trap HP (3xStrepTagII on Smc4), then Superose 6 10/300 in 200 mM NaCl, 50 mM Tris-HCl pH 8.0; subunits seen by SDS-PAGE and Coomassie staining.

B1: Smc2 (protein, UniProt P38989 1-1170)
chain: MKVEELIIDGFKSYATRTVITDWDPQFNAITGLNGSGKSNILDAICFVLGIASMSTVRASSLQDLIYKRGQAGVTKASVTIVFDNTDKSNSPIGFTNSPQISVTRQVVLGGTSKYLINGHRAPQQSVLQLFQSVQLNINNPNFLIMQGKITKVLNMKPSEILSLIEEAAGTKMFEDRREKAERTMSKKETKLQENRTLLTEEIEPKLEKLRNEKRMFLEFQSTQTDLEKTERIVVSYEYYNIKHKHTSIRETLENGETRMKMLNEFVKKTSEEIDSLNEDVEEIKLQKEKELHKEGTISKLENKENGLLNEISRLKTSLSIKVENLNDTTEKSKALESEIASSSAKLIEKKSAYANTEKDYKMVQEQLSKQRDLYKRKEELVSTLTTGISSTGAADGGYNAQLAKAKTELNEVSLAIKKSSMKMELLKKELLTIEPKLKEATKDNELNVKHVKQCQETCDKLRARLVEYGFDPSRIKDLKQREDKLKSHYYQTCKNSEYLKRRVTNLEFNYTKPYPNFEASFVHGVVGQLFQIDNDNIRYATALQTCAGGRLFNVVVQDSQTATQLLERGRLRKRVTIIPLDKIYTRPISSQVLDLAKKIAPGKVELAINLIRFDESITKAMEFIFGNSLICEDPETAKKITFHPKIRARSITLQGDVYDPEGTLSGGSRNTSESLLVDIQKYNQIQKQIETIQADLNHVTEELQTQYATSQKTKTIQSDLNLSLHKLDLAKRNLDANPSSQIIARNEEILRDIGECENEIKTKQMSLKKCQEEVSTIEKDMKEYDSDKGSKLNELKKELKLLAKELEEQESESERKYDLFQNLELETEQLSSELDSNKTLLHNHLKSIESLKLENSDLEGKIRGVEDDLVTVQTELNEEKKRLMDIDDELNELETLIKKKQDEKKSSELELQKLVHDLNKYKSNTNNMEKIIEDLRQKHEFLEDFDLVRNIVKQNEGIDLDTYRERSKQLNEKFQELRKKVNPNIMNMIENVEKKEAALKTMIKTIEKDKMKIQETISKLNEYKRETLVKTWEKVTLDFGNIFADLLPNSFAKLVPCEGKDVTQGLEVKVKLGNIWKESLIELSGGQRSLIALSLIMALLQFRPAPMYILDEVDAALDLSHTQNIGHLIKTRFKGSQFIVVSLKEGMFANANRVFRTRFQDGTSVVSIM
B1: the binding result is recorded as “binds”.

B2: Ycs4 (protein, UniProt Q06156 1-1176)
chain: MSGFSLSEYLTKFQTTDRESYPRLQDPSRELNVIIDQLAVSPEQIDASPDSLEALIDLCHDFPHLTPKLQTQLSYLISSSLSNLSKDIKANLSSNVNFTEIGGLIPQWKRHLEEYGYLIQVLLTFLQDELHKVSSQSTNLNRSAKNSKNDSANVELFKRDCNQMENLLESITKLLEINLSKIFQTTPEKDLFIGLFTRPLFVLLEIEPVTKVSSLKMFIQRILAMCVKNHGQSSSIQSSLMTNLTYFLHLSVFNAELLKLLNDEYNYPQLTEDILKEISTRVFNAKDTTGPKAISNFLIKLSELSPGIMLRQMNLVITLLNNSSITLRCSVVEACGNIVAELAQDPQTMEHYKQQIAVLIELLEERFQDSNPYVRTKAIQGCSKICDLSSKFNKSKAKFTSLAVRSLQDRSSLVRRNSVKLLSKLLLKHPFKAIHGSQLRLSEWEEYLKGSESQLNSTLKKVESQETLNDTIERSLIEEEVEQDEGQCRTELEGSFNKSAELSRIENEVENINATNTSVLMKLKLMIVYYKDAISFIKEIHKSIELISNLLFSKNRNEVLESMDFLVLADAFDIELSEFGIKKMLHLVWMKGTNDEGTSISVHLIECYKQLFLTAPDSCNMQEKAAHIAKNLINLSIGASIADLASLEQLLGMMYEQKLIDQHVINILWAIYNSASKASMQKEQNVNNRDSEKGFSKEQIHGSIIILGMLSLADNEIALKGLESLLNIGLGAVGLKDLTLCRYSCLALERMVPKRSTIITKAINQELEDVAVKKLYAIIINYTKDNEYYPMCEQALSALFTISSKPDILATDLIREKTMMTFGKPEEEDSILSLEQSSRVVSLSQLLFIVGQVAIKTLVYLEKCEAEFKKRKIEAETRNGKVKNQGADVTNTTQDNGGDKELEMIGGTNEDDFTDAIQFVKENELLFGEKSILGKFCPIVEEIVSNSSRFSDPMLQRTATLCLEKLMCLSSKYCEKSLPLLITVMEKSPDPTIRSNAVLGLGDMAVCFNNLVDENTDYLYRRLHDENLMVQRTCLMTVTFLILAGQVKVKGQLGEMAKCLDNPDQGISDMCRLFFTELASKDNAIYNGFIDIFSNLSSDDLLGKESFKKIIKFLLTFIDKERHQKQLNEKLVGRLRKCETQKQWDDIAFVLNNLPYKNEDVTALLEQGFKVVSAKE
Turning to B2, the binding result is given as “binds”.

B3: Brn1-3xHA-12xHIS (protein, UniProt P38170 1-754)
chain: MTTQLRYENNDDDERVEYNLFTNRSTMMANFEEWIKMATDNKINSRNSWNFALIDYFYDLDVLKDGENNINFQKASATLDGCIKIYSSRVDSVTTETGKLLSGLAQRKTNGASNGDDSNGGNGEGLGGDSDEANIEIDPLTGMPISNDPDVNNTRRRVYNRVLETTLVEFETIKMKELDQELIIDPLFKKALVDFDEGGAKSLLLNTLNIDNTARVIFDASIKDTQNVGQGKLQRKEEELIERDSLVDDENEPSQSLISTRNDSTVNDSVISAPSMEDEILSLGMDFIKFDQIAVCEISGSIEQLRNVVEDINQAKDFIENVNNRFDNFLTEEELQAAVPDNAEDDSDGFDMGMQQELCYPDENHDNTSHDEQDDDNVNSTTGSIFEKDLMAYFDENLNRNWRGREHWKVRNFKKANLVNKESDLLEETRTTIGDTTDKNTTDDKSMDTKKKHKQKKVLEIDFFKTDDSFEDKVFASKGRTKIDMPIKNRKNDTHYLLPDDFHFSTDRITRLFIKPGQKMSLFSHRKHTRGDVSSGLFEKSTVSANHSNNDIPTIADEHFWADNYERKEQEEKEKEQSKEVGDVVGGALDNPFEDDMDGVDFNQAFEGTDDNEEASVKLDLQDDEDHKFPIRENKVTYSRVSKKVDVRRLKKNVWRSINNLIQEHDSRKNREQSSNDSETHTEDESTKELKFSDIIQGISKMYSDDTLKDISTSFCFICLLHLANEHGLQITHTENYNDLIVNYEDLATTQAAS
For B3, the binding result is “binds”.
